{"source": "patent EP1270587A1", "about": "“Transporter proteins for oxoderivatives of nitrogen-containing heterocyclic compounds and coding nucleic acids” (priority 2001, dated 2003)", "tested_on": "UPS1-N-Heterozyklentransporter aus Arabidopsis thaliana, SEQ ID NO: 8, in Hefe exprimiert", "assay": "Competition study: uptake of 14C-allantoin by yeast strain GEM42::pFL61-UPS1 in the presence of an unlabelled N-heterocycle", "type": "cell-based", "conditions": "14C-Allantoin 0.2 mM, competitor 2 mM, result in words only, per cent values only in Fig. 3", "note": "Some results were stated once for a whole list of compounds, not compound by compound.", "data": [{"smiles": "O=c1[nH]c(=O)c2[nH]cnc2[nH]1", "note": "[Xanthin]", "values": [{"measurement": "Allantoinaufnahme in Gegenwart eines zehnfachen Überschusses eines anderen N-haltigen Heterozyklus", "value": "ebenfalls von den Hefezellen aufgenommen"}]}]}
